Record: PubChem BioAssay AID652243 (Drosophila RNAi Screening Center, 2013)
Screen: 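Knock-downs that decrease or increase androgen receptor reporter signal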 (primary screen). Cells: Drosophila S2R+ cells. Knock-down reagent: long dsRNA against Drosophila genes. Time to read-out: 72 h (48 h, then 24 h hormone). Conditions: synthetic androgen R1881 at 10 nM for 24 h. Measured: 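Per-well raw luminescence of the androgen-driven firefly reporter and of the Renilla control, two replicates each, without normalisation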. Reading the numbers: firefly reporter light: higher = more light from androgen-responsive reporter; Renilla control light: higher = more constitutive control signal (cell number, transfection). Rule for the call: 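Across duplicate plates, a knock-down whose log firefly/Renilla ratio shifted a set fold down or up from the GFP/LacZ control mean was a hit; the downward cut appears as both 1.5 and 3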. Meaning of the calls: active = hit: reporter lowered or raised; inactive = no hit.
The screen tested about 24,000 reagents; shown is an unselected part of those that have a named target and a result. In the full data, 246 (1%) were called active. 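Plates not normalised; calls are printed but the firefly/Renilla ratio behind them is not deposited; fold cut for lowering reported inconsistently.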 Raw values vary from plate to plate and are shown uncorrected. Unmarked entries are inactive. The record does not give: the amount of reagent.

| Target gene | amplicon | firefly reporter light, replicate 1 | firefly reporter light, replicate 2 | Renilla control light, replicate 1 | Renilla control light, replicate 2 |
| --- | --- | --- | --- | --- | --- |
| CG10465 (GeneID 35488) | DRSC04848 | 3.28e5 | 3.27e5 | 1.65e6 | 1.69e6 |
| fzo (GeneID 42745) | DRSC16954 | 1.51e5 | 2.19e5 | 2.62e6 | 2.57e6 |
| D2hgdh (GeneID 31184) | DRSC18577 | 1.21e5 | 1.32e5 | 1.10e6 | 8.97e5 |
| D2hgdh (GeneID 31184) | DRSC25824 | 3.74e5 | 4.57e5 | 5.89e5 | 6.46e5 |
| SmD3 (GeneID 36306) | DRSC07553 | 4.67e5 | 2.77e5 | 2.02e6 | 1.84e6 |
| SmD3 (GeneID 36306) | DRSC29356 | 3.65e5 | 4.90e5 | 1.17e6 | 1.17e6 |
| Hsp83 (GeneID 38389) | DRSC08664 | 2.73e5 | 2.82e5 | 2.26e6 | 3.10e6 |
| Hsp83 (GeneID 38389) | DRSC25052 | 4.46e5 | 3.26e5 | 4.12e5 | 3.80e5 |
| Cyp18a1 (GeneID 32858) | DRSC20235 | 2.45e5 | 1.63e5 | 1.18e6 | 5.61e5 |
| Cyp18a1 (GeneID 32858) | DRSC27063 | 4.56e5 | 3.87e5 | 7.71e5 | 7.03e5 |
| sro (GeneID 43512) | DRSC14469 | 1.15e5 | 1.59e5 | 1.63e6 | 2.37e6 |
| sro (GeneID 43512) | DRSC27358 | 5.02e5 | 6.18e5 | 9.34e5 | 9.53e5 |
| AP-2mu (GeneID 42642) | DRSC14090 | 96578 | 88212 | 5.73e5 | 6.97e5 |
| AP-2mu (GeneID 42642) | DRSC28264 | 3.82e5 | 5.90e5 | 7.99e5 | 1.03e6 |
| eIF3m (GeneID 36565) | DRSC07142 | 1.13e6 | 8.70e5 | 1.94e6 | 1.32e6 |
| eIF3m (GeneID 36565) | DRSC26908 | 3.21e5 | 3.29e5 | 3.67e5 | 3.77e5 |
| CG11180 (GeneID 37330) | DRSC06055 | 1.07e6 | 1.05e6 | 1.97e6 | 1.92e6 |
| CG11180 (GeneID 37330) | DRSC28153 | 2.46e5 | 3.21e5 | 7.90e5 | 9.55e5 |
| CG11378 (GeneID 31060) | DRSC18627 | 2.69e5 | 3.13e5 | 3.59e6 | 2.91e6 |
| CG11378 (GeneID 31060) | DRSC29720 | 5.56e5 | 4.40e5 | 1.39e6 | 1.36e6 |
| CG14339 (GeneID 33286) | DRSC00369 | 74421 | 73120 | 7.28e5 | 6.61e5 |
| CG14339 (GeneID 33286) | DRSC26560 | 3.10e5 | 3.29e5 | 5.89e5 | 4.82e5 |
| meigo (GeneID 42510) | DRSC15877 | 2.52e5 | 2.79e5 | 3.02e6 | 3.51e6 |
| meigo (GeneID 42510) | DRSC25836 | 3.17e5 | 2.89e5 | 9.18e5 | 7.25e5 |
| CG14302 (GeneID 42252) | DRSC14781 | 3.40e5 | 2.86e5 | 4.93e6 | 3.21e6 |
| KdelR (GeneID 34427) | DRSC03353 | 9.48e5 | 1.13e6 | 9.43e5 | 1.24e6 |
| Topors (GeneID 37188) | DRSC06531 | 7.00e5 | 6.43e5 | 1.00e6 | 8.59e5 |
| CG9582 (GeneID 34230) | DRSC03267 | 1.40e5 | 1.37e5 | 1.22e6 | 1.15e6 |
| CG4360 (GeneID 42413) | DRSC15566 | 2.51e5 | 2.60e5 | 2.56e6 | 2.87e6 |
| CG4360 (GeneID 42413) | DRSC30049 | 7.94e5 | 7.12e5 | 1.77e6 | 1.55e6 |
| Hat1 (GeneID 40716) | DRSC12298 | 33128 | 30177 | 1.17e6 | 7.66e5 |
| Hat1 (GeneID 40716) | DRSC29235 | 8.41e5 | 8.69e5 | 1.33e6 | 1.36e6 |
| ida (GeneID 45574) | DRSC08163 | 1.48e5 | 1.01e5 | 9.50e5 | 1.02e6 |
| Nup160 (GeneID 34549) | DRSC02774 | 1.10e5 | 1.30e5 | 1.01e6 | 1.42e6 |
| Rtc1 (GeneID 32338) | DRSC20285 | 70548 | 75862 | 6.29e5 | 6.13e5 |
| CG2747 (GeneID 40950) | DRSC15450 | 80438 | 1.16e5 | 1.66e6 | 1.77e6 |
| twz (GeneID 37456) | DRSC04069 | 2.65e5 | 2.35e5 | 1.42e6 | 8.58e5 |
| twz (GeneID 37456) | DRSC25832 | 3.42e5 | 4.04e5 | 1.16e6 | 9.64e5 |
| Pde6 (GeneID 41760) | DRSC16401 | 32419 | 51254 | 1.94e5 | 2.32e5 |
| Pde6 (GeneID 41760) | DRSC16402 | 1.59e5 | 1.24e5 | 2.01e6 | 2.16e6 |
| Pde6 (GeneID 41760) | DRSC16403 | 1.42e5 | 76993 | 1.94e6 | 2.25e6 |
| CG32263 (GeneID 317944) | DRSC22431 | 4.39e5 | 5.49e5 | 1.45e6 | 2.04e6 |
| CG32263 (GeneID 317944) | DRSC29009 | 4.32e5 | 4.81e5 | 1.33e6 | 1.15e6 |
| CG2955 (GeneID 33622) | DRSC00552 | 6.94e5 | 8.55e5 | 1.98e6 | 1.80e6 |
| Zpr1 (GeneID 31851) | DRSC18432 | 76906 | 96026 | 7.77e5 | 1.00e6 |
| wash (GeneID 36311) | DRSC06302 | 3.37e5 | 2.17e5 | 1.97e6 | 1.45e6 |
| CG3502 (GeneID 37695) | DRSC04381 | 8.15e5 | 6.90e5 | 1.36e6 | 1.04e6 |
| CG2972 (GeneID 31943) | DRSC18250 | 76244 | 53689 | 6.62e5 | 6.57e5 |
| CG2972 (GeneID 31943) | DRSC30013 | 6.63e5 | 4.18e5 | 1.01e6 | 8.10e5 |
| fand (GeneID 36514) | DRSC06967 | 9.63e5 | 1.01e6 | 2.02e6 | 2.74e6 |
| fand (GeneID 36514) | DRSC27505 | 1.89e5 | 2.11e5 | 3.78e5 | 8.94e5 |
| fand (GeneID 36514) | DRSC39027 | 6.81e5 | 7.41e5 | 1.64e6 | 1.61e6 |
| ppk15 (GeneID 43188) | DRSC14733 | 1.28e5 | 2.46e5 | 1.33e6 | 2.06e6 |
| ppk15 (GeneID 43188) | DRSC27947 | 9.95e5 | 4.23e5 | 2.30e6 | 1.01e6 |
| hpRNA:CR32205 (GeneID 3772102) | DRSC09610 | 2.12e5 | 2.37e5 | 3.23e5 | 3.87e5 |
| hpRNA:CR32205 (GeneID 3772102) | DRSC09890 | 2.05e5 | 2.81e5 | 2.46e6 | 3.10e6 |
| hpRNA:CR32205 (GeneID 3772102) | DRSC28015 | 5.73e5 | 4.95e5 | 1.67e6 | 1.43e6 |
| CG12608 (GeneID 32463) | DRSC19472 | 61748 | 91206 | 6.41e5 | 5.74e5 |

Taken from above.
Value for CG11378 (GeneID 31060) [DRSC29720] under “firefly reporter light, replicate 1”: 5.56e5
Value of fand (GeneID 36514) [DRSC27505] under “firefly reporter light, replicate 1”: 1.89e5
Entry for fzo (GeneID 42745) [DRSC16954] in “Renilla control light, replicate 1”: 2.62e6
Value for Hsp83 (GeneID 38389) [DRSC25052] in “Renilla control light, replicate 1”: 4.12e5
Value for eIF3m (GeneID 36565) [DRSC07142] under “Renilla control light, replicate 1”: 1.94e6
Result of D2hgdh (GeneID 31184) [DRSC25824] under “Renilla control light, replicate 1”: 5.89e5
